Test results as given in PubChem BioAssay AID504834 (National Center for Advancing Translational Sciences (NCATS), 2011).
The whole screen tested about 320,000 compounds, of which about 22,000 (6.9%) were called active. The inconclusive results got no clear call from the source; some entries with a clear call stand among them for comparison. The call rests on the fitted dose curve; in most records, active means well fitted inhibition curve with a large enough effect; inconclusive means small, poorly fitted or top-dose-only effect, or another doubt; inactive means no such curve, though single readings can be large or run the other way. Potencies of inconclusive entries are doubtful fits and often do not repeat.

Assay: Primary qHTS for delayed death inhibitors of the malarial parasite plastid, 96 hour incubation
Conditions: P. falciparum luciferase reporter growth; series mostly up to 28.7 µM; activity change, negative = inhibition: at the top concentration
Summary of the method: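 Parasite growth measured via integrated firefly luciferase reporter in P. falciparum. Infected erythrocytes at 2% hematocrit, 0.05% parasitemia final were treated 96 hours at 37 C under 5% CO2, and luminescence was read.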
On the % scale 0 is the no-effect control and ±100 the full control effect; potency means the concentration at half of the fitted maximal effect.

**Q.** With `Cc1ccccc1NC(=O)c1sc(Cl)nc1C` as the molecule, how does the Potency read?
**A.** inconclusive: 18.5 µM [inhibitor, single point]

**Q.** With `COc1ccc(NC(=O)CSc2cn[nH]n2)cc1OC` as the molecule, how does the Potency read?
**A.** inconclusive: 9.28 µM [inhibitor, partial curve]

**Q.** Which “activity change, negative = inhibition” value does the source give for `S=C(NCc1ccco1)Nc1ccccc1Cl` here?
**A.** inactive: 37.8%

**Q.** With `Cc1ccc(N(Cc2ccccc2)C(=O)c2cc(S(=O)(=O)N3CCOCC3)ccc2F)cc1` as the molecule, how does the Potency read?
**A.** inconclusive: 7.38 µM [inhibitor, partial curve]

**Q.** Which Potency does the source give for `O=C(COc1ccccc1[N+](=O)[O-])N1CCN(C(=O)c2ccco2)CC1` here?
**A.** inconclusive: 11.7 µM [inhibitor, single point]

**Q.** Which Potency does the source give for `Cc1ccc(NC(=O)C2C3C=CC4(O3)C2C(=O)N(CCCN2CCCCC2)C4C(=O)NC2CCCCC2)cc1Cl` (stereo not drawn) here?
**A.** inconclusive: 18.5 µM [inhibitor, single point]

**Q.** With `CCNC(=O)NC1(C(=O)Nc2ccc3c(c2)OCCO3)CCCCC1` as the molecule, how does the Potency read?
**A.** inconclusive: 4.15 µM [inhibitor, single point]

**Q.** For `COc1ccc(NC(=O)c2ccc(C(=O)Nc3ccc(OC)cc3OC)cc2)c(OC)c1`, which Potency is on record?
**A.** inconclusive: 18.5 µM [inhibitor, single point]

**Q.** Which Potency does the source give for `COC(=O)C1C(=O)c2c(C)noc2CC1(C)C` (stereo not drawn) here?
**A.** inconclusive: 4.15 µM [inhibitor, partial curve, poor fit]

**Q.** With `CCN(CC(=O)Nc1ccccc1C(F)(F)F)C(=O)c1ccccc1Sc1ccccc1C#N` as the molecule, how does the Potency read?
**A.** inconclusive: 0.522 µM [inhibitor, full curve]

**Q.** For `CC(C)c1ccc(CN2CCC(Oc3ccc(C(=O)N4CCCC4)cc3)CC2)cc1`, which “activity change, negative = inhibition” value is on record?
**A.** inactive: -30.7%

**Q.** With `CCOC(=O)c1ccc(NC(=O)CSc2nc3cccnc3n2C)cc1` as the molecule, how does the Potency read?
**A.** inconclusive: 18.5 µM [inhibitor, single point]

**Q.** For `C/C(=N\NS(=O)(=O)c1ccc(Br)cc1)c1ccc(-n2ccnc2)cc1`, which Potency is on record?
**A.** inconclusive: 13.1 µM [inhibitor, single point]

**Q.** With `Cc1ccc2sc(N(CCCN(C)C)C(=O)CCS(=O)(=O)c3ccccc3)nc2c1C` as the molecule, how does the Potency read?
**A.** active: 6.57 µM

**Q.** Which Potency does the source give for `O=C(COC(=O)c1ccccc1-c1nc2ccccc2s1)Nc1ccccc1C(F)(F)F` here?
**A.** inconclusive: 18.5 µM [inhibitor, single point]

**Q.** For `COC(=O)/C=C1/SC(=NC(=O)c2cccc([N+](=O)[O-])c2)NC1=O`, which “activity change, negative = inhibition” value is on record?
**A.** inactive: -33.3%

**Q.** For `COc1ccc(/C=C2\SC(=O)N(CC(=O)Nc3ccccc3O)C2=O)cc1OC`, which “activity change, negative = inhibition” value is on record?
**A.** inactive: 4.77%

**Q.** With `C/C(CCc1oc2ccc(Br)cc2c1-c1ccc(C)o1)=N/O` as the molecule, how does the Potency read?
**A.** inconclusive: 18.5 µM [inhibitor, single point]

**Q.** With `COc1cccc(-c2nnc3sc(-c4ccco4)nn23)c1` as the molecule, how does the Potency read?
**A.** inconclusive: 18.5 µM [inhibitor, single point]

**Q.** Which Potency does the source give for `O=C(N/N=C\c1ccc(Cl)cc1)c1sccc1-n1cccc1` here?
**A.** inconclusive: 0.104 µM [inhibitor, full curve, poor fit]

**Q.** With `Cc1cc(=O)nc2c3ccccc3n(C(C)C(=O)Nc3c(F)c(F)c(F)c(F)c3F)n12` (stereo not drawn) as the molecule, how does the “activity change, negative = inhibition” value read?
**A.** inactive: 0%

**Q.** With `CCCN(CCC)c1ccc(C(O)c2nnc(-c3ccccc3)o2)cc1` (stereo not drawn) as the molecule, how does the Potency read?
**A.** inconclusive: 18.5 µM [inhibitor, single point]

**Q.** With `COc1cccc(C2C(C#N)=C(N)OC3=C2C(=O)CC(c2ccco2)C3)c1OCc1ccc(F)cc1` (stereo not drawn) as the molecule, how does the “activity change, negative = inhibition” value read?
**A.** inactive: 64.6%

**Q.** For `CCc1ccc(Nc2n[n+](-c3ccccc3)c(-c3cccc(C)c3)s2)cc1`, which Potency is on record?
**A.** active: 8.28 µM

**Q.** Which “activity change, negative = inhibition” value does the source give for `COc1ccc(-c2csc3ncnc(N4CCN(CCO)CC4)c23)cc1` here?
**A.** inactive: -28.3%

**Q.** With `COc1ccc(NC(=S)NC(C)Cc2cccs2)cc1` (stereo not drawn) as the molecule, how does the “activity change, negative = inhibition” value read?
**A.** inactive: -12.8%

**Q.** For `CCCC(=O)O[C@]1(C(=O)COC(C)=O)CC[C@H]2[C@@H]3C[C@H](F)C4=CC(=O)C=C[C@]4(C)[C@@]3(F)[C@@H](O)C[C@@]21C`, which Potency is on record?
**A.** inconclusive: 14.7 µM [inhibitor, single point]

**Q.** For `Cc1ccc(NC(=O)C2CCN(S(=O)(=O)c3c(C)noc3/C=C/c3ccco3)CC2)nc1`, which Potency is on record?
**A.** inconclusive: 10.4 µM [inhibitor, single point]

**Q.** With `S=C(Nc1ccccc1)N1CCn2c(nc3ccccc32)C1` as the molecule, how does the “activity change, negative = inhibition” value read?
**A.** inactive: 0%

**Q.** For `NC(=O)[C@@H]1CCCN1C(=O)c1cc(COc2ccc3c(c2)CCCC3)on1`, which Potency is on record?
**A.** inconclusive: 16.5 µM [inhibitor, single point]

**Q.** For `CCOc1ccc(N2CSC3=C(C#N)C(c4ccco4)CC(=O)N3C2)cc1` (stereo not drawn), which Potency is on record?
**A.** inconclusive: 7.38 µM [inhibitor, partial curve, poor fit]

**Q.** For `Cc1cc(C(=O)Nc2cc(C(F)(F)F)ccc2N2CCOCC2)no1`, which Potency is on record?
**A.** inconclusive: 18.5 µM [inhibitor, partial curve, poor fit]

**Q.** With `O=C(CSc1nnnn1-c1ccc2c(c1)CCC2)Nc1ccc2c(c1)OCCO2` as the molecule, how does the Potency read?
**A.** active: 10.4 µM

**Q.** For `CCOC(=O)COc1ccccc1/C=N/O`, which “activity change, negative = inhibition” value is on record?
**A.** inactive: 0%

**Q.** Which Potency does the source give for `COc1cccc(CN(C)CC(=O)NCc2ccccc2Cl)c1` here?
**A.** inconclusive: 13.1 µM [inhibitor, partial curve, poor fit]

**Q.** For `COc1ccc(S(=O)(=O)N2CCCCC2)cc1NC(=O)CCCOc1ccccc1`, which “activity change, negative = inhibition” value is on record?
**A.** inactive: -18%

**Q.** With `COC(=O)c1cccc(S(=O)(=O)N2CCOCC2)c1` as the molecule, how does the Potency read?
**A.** inconclusive: 18.5 µM [inhibitor, single point]

**Q.** For `O=C(C1=C[C@@H](c2coc3ccccc3c2=O)C[C@@H](OCCCCO)O1)N1CCOCC1`, which Potency is on record?
**A.** inconclusive: 2.94 µM [inhibitor, full curve, poor fit]

**Q.** For `COc1ccc(CCNc2nc(-c3sc(N)nc3C)cs2)cc1OC`, which Potency is on record?
**A.** inconclusive: 9.28 µM [inhibitor, single point]

**Q.** Which “activity change, negative = inhibition” value does the source give for `NC(=O)c1ccc(NC(=O)CCc2nc3sc4c(c3c(=O)[nH]2)CCCC4)cc1` here?
**A.** inactive: -13.2%

**Q.** With `CN1CCC(C2(O)c3ccccc3CSc3sccc32)CC1` (stereo not drawn) as the molecule, how does the Potency read?
**A.** inconclusive: 18.5 µM [inhibitor, single point]

**Q.** Which “activity change, negative = inhibition” value does the source give for `Cc1cc2ncc(-c3ncc(C(F)(F)F)cc3Cl)cn2n1` here?
**A.** inactive: 0.695%

**Q.** Which Potency does the source give for `COC(=O)C(CSCc1ccccc1)NC(=O)CSc1nc(C)cc(=O)[nH]1` (stereo not drawn) here?
**A.** inconclusive: 0.37 µM [inhibitor, partial curve, poor fit]

**Q.** For `O=C(O)c1ccc2c(c1)C(=O)N([C@@H](Cc1ccc(O)cc1)C(=O)O)C2=O`, which “activity change, negative = inhibition” value is on record?
**A.** inactive: 14.9%

**Q.** Which Potency does the source give for `C=CCn1c(SCC(=O)c2c(N)n(C3CC3)c(=O)[nH]c2=O)nnc1-c1ccccc1OC` here?
**A.** active: 11.7 µM

**Q.** For `CSc1ccc(Cl)c(C(=O)Nc2ccc(OCC(N)=O)cc2)c1`, which “activity change, negative = inhibition” value is on record?
**A.** inactive: 53.9%

**Q.** With `CS(=O)(=O)c1ccccc1C(=O)Nc1nc2ccccc2[nH]1` as the molecule, how does the “activity change, negative = inhibition” value read?
**A.** inactive: 10.2%

**Q.** Which Potency does the source give for `O=C(/C=C/c1ccc(Br)cc1)NC(=S)NNC(=O)c1ccco1` here?
**A.** inconclusive: 5.22 µM [inhibitor, partial curve]

**Q.** With `O=C(CCc1ccccc1)NC1(Cc2ccccc2)CCN(CCc2cccs2)C1=O` (stereo not drawn) as the molecule, how does the Potency read?
**A.** inconclusive: 5.86 µM [inhibitor, single point]

**Q.** Which “activity change, negative = inhibition” value does the source give for `CC(C)N(CCNC(=O)c1cn(C)c2ccc(S(=O)(=O)N(C)C)cc2c1=O)Cc1ccccc1` here?
**A.** inactive: -8.68%

**Q.** With `O=C(c1ccccc1)n1nc(-c2ccccc2)nc1NCc1ccco1` as the molecule, how does the Potency read?
**A.** inconclusive: 4.15 µM [inhibitor, single point]

**Q.** With `Cc1ccsc1CNn1cnnc1SCc1ccc(Cl)cc1` as the molecule, how does the Potency read?
**A.** inconclusive: 16.5 µM [inhibitor, single point]

**Q.** With `CCOc1ccc(N(CC(=O)NCc2ccc(C)cc2)S(=O)(=O)c2c(C)[nH]c(=O)[nH]c2=O)cc1` as the molecule, how does the Potency read?
**A.** inconclusive: 18.5 µM [inhibitor, single point]

**Q.** With `CCOc1ccc2[nH]c(=O)c(C(c3nnnn3CCOC)N3CCOCC3)cc2c1` (stereo not drawn) as the molecule, how does the Potency read?
**A.** inconclusive: 18.5 µM [inhibitor, single point]

**Q.** For `CCOc1cc(CNCCN2CCOCC2)ccc1OCc1ccccc1Cl`, which Potency is on record?
**A.** inconclusive: 3.7 µM [inhibitor, partial curve, poor fit]

**Q.** With `C/C(CC(=O)Nc1c(C)cc(C)cc1C)=N\NC(=O)OC(C)(C)C` as the molecule, how does the Potency read?
**A.** inconclusive: 18.5 µM [inhibitor, single point]

**Q.** Which Potency does the source give for `CC(C)(C)N(NC(=O)c1ccccc1)C(=O)c1cccc(C(=O)N(NC(=O)c2ccccc2)C(C)(C)C)c1` here?
**A.** inconclusive: 5.22 µM [inhibitor, partial curve, poor fit]

**Q.** With `CCOC(=O)C(C)N1C(=O)S/C(=C/c2cc(C)n(-c3ccncc3)c2C)C1=O` (stereo not drawn) as the molecule, how does the Potency read?
**A.** active: 13.1 µM

**Q.** Which Potency does the source give for `CCN(CC)CCN1C(=O)c2oc3ccccc3c(=O)c2C1c1ccc(F)cc1` (stereo not drawn) here?
**A.** active: 9.28 µM

**Q.** Which Potency does the source give for `Cc1cccc(Oc2ccccc2NC(=O)CSCC(=O)Nc2cc(C)on2)c1` here?
**A.** inconclusive: 5.22 µM [inhibitor, partial curve, poor fit]

**Q.** For `O=C(CSc1nc2ccccc2o1)c1cc2ccccc2oc1=O`, which Potency is on record?
**A.** inconclusive: 1.47 µM [inhibitor, partial curve, poor fit]

**Q.** With `Nc1ccc2nc(-c3ccc(Cl)cc3)[nH]c2c1` as the molecule, how does the Potency read?
**A.** inconclusive: 14.7 µM [inhibitor, partial curve, poor fit]

**Q.** With `C#CCNC(=O)C1=C[C@@H](c2coc3ccccc3c2=O)C[C@@H](OCc2ccc(CO)cc2)O1` as the molecule, how does the Potency read?
**A.** inconclusive: 18.5 µM [inhibitor, partial curve, poor fit]

**Q.** Which Potency does the source give for `COc1ccc(NC(=O)N2CCCc3cc(C)ccc32)c(OC)c1` here?
**A.** inconclusive: 11.7 µM [inhibitor, single point]

**Q.** With `O=C(O)c1cc(O)c2c(c1)[O][Bi][O]2` as the molecule, how does the “activity change, negative = inhibition” value read?
**A.** inactive: -16.7%

**Q.** For `CN(C)S(=O)(=O)N(CC(=O)Nc1ccccc1C(F)(F)F)c1ccccc1`, which Potency is on record?
**A.** inconclusive: 18.5 µM [inhibitor, single point]

**Q.** Which “activity change, negative = inhibition” value does the source give for `O=C(COC(=O)c1c[nH]c(=O)[nH]c1=O)Nc1ccccc1Br` here?
**A.** inactive: 9.7%

**Q.** With `COc1cccc(CNC(=O)C2=C(C)C(=O)OC23CCC(C)CC3)c1` (stereo not drawn) as the molecule, how does the “activity change, negative = inhibition” value read?
**A.** inactive: 0.894%
